Key:
[1] = tested on: IGROV-1HiFR (human ovarian carcinoma with high expression of folate-receptor) cells; test: Cytotoxicity, 72 hr continuous exposure, 96-multiwell growth assay; format: cell-based; conditions: without folate targeting
Method: (§1) Cytotoxicity was assayed using varying concentrations of drug (0.1-200 μM) under standard 72 hr, continuous exposure, in 96-multiwell assays. Growth rate was assessed colorimetrically based on methylene blue staining or using the Promega MTS kit, and data was be obtained with an automatic plate reader and IC50 values were determined.

[2] = tested on: KB-HiFR (human head-and-neck carcinoma with high expression of folate-receptor) cells; test: as above; format: cell-based; conditions: without folate targeting
Method: as §1

Work on `NCCCC(O)(P(=O)(O)O)P(=O)(O)O` [Free Alendroante, 4-amino-1-hydroxybutylidene-1,1-bisphosphonic acid] yielded an IC50 [1] of 26.5 µM and an IC50 [2] of 157 µM.

Source: patent US20120100206A1, “TARGETED LIPOSOMES COMPRISING N-CONTAINING BISPHOSPHONATES AND USES THEREOF” (Yissum Research Development Company of the Hebrew …, priority 2009, published 2012)
